Measured values: PubChem BioAssay AID1259354 (Paczesny and Yang Labs, IUPUI and University of Michigan, 2018)
Where “and” joins values, the source holds several entries; their conditions need not be identical. Equal entries are not always repeated. The campaign covered roughly 78,000 compounds. About 1,800 (2.3%) were called active. This list was built around the results that the source calls inconclusive (neither active nor inactive); the mix of calls is not that of the screen. Rule as the data show it: active = inhibition above about 30%; inconclusive = mostly about 10% to 28%; inactive = weaker than that.

Protein sequences, listed by entry. Tags and fused reporters are not part of them. Lines headed by an entry give the natural chain unless they say otherwise; changes in a name come on top.
UniProt Q01638: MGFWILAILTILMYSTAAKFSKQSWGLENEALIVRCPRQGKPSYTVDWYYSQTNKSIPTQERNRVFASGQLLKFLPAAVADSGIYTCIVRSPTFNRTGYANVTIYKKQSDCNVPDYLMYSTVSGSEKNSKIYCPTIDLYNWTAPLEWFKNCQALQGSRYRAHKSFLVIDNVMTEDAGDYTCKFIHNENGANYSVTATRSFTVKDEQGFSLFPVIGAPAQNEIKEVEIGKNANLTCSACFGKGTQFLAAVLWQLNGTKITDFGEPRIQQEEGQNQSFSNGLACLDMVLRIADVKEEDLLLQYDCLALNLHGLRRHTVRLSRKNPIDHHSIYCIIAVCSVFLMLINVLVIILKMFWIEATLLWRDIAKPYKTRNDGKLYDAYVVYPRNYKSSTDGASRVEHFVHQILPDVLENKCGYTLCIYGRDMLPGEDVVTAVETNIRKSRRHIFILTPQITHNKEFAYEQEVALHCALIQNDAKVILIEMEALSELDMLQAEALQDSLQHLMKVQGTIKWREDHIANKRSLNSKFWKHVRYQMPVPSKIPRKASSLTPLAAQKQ

molecular target: Interleukin-1 receptor-like 1 (Homo sapiens) (UniProt Q01638); test: blocks human ST2 binding to IL-33, primary screen, biochemical, AlphaLISA (AID 1259354); settings: AlphaLISA ST2-Fc/biotin-IL-33 interaction, 1 h; at 17 µM, stronger effect = higher value

| SMILES | inhibition |
| --- | --- |
| CN(C)c1ccc(Nc2cccc3nccnc23)cc1 | active: 84% |
| CCC(C)n1c(=N)c(C(=O)NCc2ccco2)cc2c(=O)n3ccccc3nc21 (stereo not drawn) | inactive |
| CCC1CN(CC(=O)N2CCN(c3ccc(C(=O)OC)cc3)CC2)Cc2ccc(Cl)cc2O1 (stereo not drawn) | inactive |
| Cc1cc(C(=O)Nc2ccc([C@@H](O)[C@H]3COCC(=O)N3Cc3ccccc3)cc2)n(C)n1 | inconclusive: 13% |
| O=S(=O)(Nc1ccc(I)cc1)c1ccc2c(c1)OCCO2 | inactive |
| CCOc1ccc(CC(=O)Nc2cc([N+](=O)[O-])ccc2OC)cc1OCC | inconclusive: 24% |
| COCC(C)NCCc1csc(-c2ccncc2)n1 (stereo not drawn) | inconclusive: 22% |
| Cc1nc(C(=O)N2CCC(N3C(=O)Cc4ccccc43)CC2)cs1 | inconclusive: 11% |
| O=C(CSc1nnc2nc[nH]n12)Nc1nc2cc([N+](=O)[O-])ccc2s1 | inconclusive: 11% |
| Cc1ccc(-n2nc3c4c(cccc4c2=O)-c2ccccc2-3)cc1 | inconclusive: 23% |
| COc1ccc(-n2ncc3c2CC(C)(C)CC3NC(=O)c2cnsn2)cc1 (stereo not drawn) | inactive |
| COc1ccc(-c2oc3ncn(CC(C)C)c(=N)c3c2-c2ccc(OC)cc2)cc1 | inconclusive: 21% and inconclusive: 20% |
| COc1ccccc1C(=O)Nc1ccc(C)c(OCc2cc(=O)n3cccc(C)c3n2)c1 | inconclusive: 28% |
| CCCOC(=O)C1=C(C)NC2=C(C(=O)C(C(=O)OC)C(C)C2)C1c1ccc(C)o1 (stereo not drawn) | inactive |
| O=C(O)C#CCN1C(=O)c2ccccc2C1=O | inactive |
| CCOC(=O)c1nc(Nc2ccc3c(c2)OCO3)c2c3c(sc2n1)CCCC3 | inconclusive: 11% |
| O=C(Cn1cccn1)NC1CC(=O)N(Cc2ccc(F)cc2)C1 (stereo not drawn) | inconclusive: 12% |
| O=[N+]([O-])c1cccc(/C=C/c2ccccn2)c1 | active: 37% |
| CC(=O)Oc1cc2c(C(=O)OC(C)C)c(C)oc2cc1Br | inconclusive: 18% |
| CCC1CN(C(=O)c2ccnc(OC)c2)CCC(=O)N1Cc1ccccc1 (stereo not drawn) | inactive |
| CCCN(CCC)CCNC(=O)C1c2ccccc2C(=O)N(C)C1c1cccs1 (stereo not drawn) | inactive |
| NC(=O)CNC(=O)[C@@]1(O)C[C@@H](O)[C@H](O)[C@@H](NC(=O)NC2CCCCC2)C1 | inconclusive: 13% |
| COc1cc2c(C(=O)N3CCC4(CC3)OCCO4)cn(C)c(=O)c2cc1OC | inconclusive: 10% |
| CN1CCC2(CCN(C(=O)CN3CCNCC3)CC2)C1 | inconclusive: 14% |

| SMILES | inhibition |
| --- | --- |
| CN(CCCSc1ccccc1)Cc1cc2ccc(F)cc2[nH]c1=O | inconclusive: 11% |
| O=C(CC1COCCN1)NCc1scnc1-c1ccccc1 (stereo not drawn) | inconclusive: 19% |
| CN1Cc2ccccc2CC1C(=O)NCCc1csc(-c2cccnc2)n1 (stereo not drawn) | inconclusive: 11% |
| COc1cc2c(cc1CN1CCC(O)(Cc3cc(-c4ccccc4)no3)CC1)CCC2 | inconclusive: 13% |
| Cc1cc(C)n(CCNC(=O)[C@H](N)CC(C)C)c(=O)n1 | inconclusive: 16% |
| COc1ccc(/C=C2\C=C(c3ccc(Cl)cc3)OC2=O)cc1OC | inconclusive: 26% |
| COc1ccc2cc3cc(C(=O)N(C)c4cc(C)ccc4C)oc3nc2c1 | inconclusive: 13% |
| COc1cc(-n2c(=O)c3ccccc3n(CC(=O)NC3CCCC3)c2=O)cc(OC)c1OC | inactive |
| COCC1(C(=O)N2CCC(c3ccccc3C(=O)O)C2)CCC1 (stereo not drawn) | inconclusive: 17% |
| O=C(Nc1cccc(F)c1)N1Cc2[nH]cnc2C[C@H]1c1nc(-c2ccc(Cl)cc2)no1 | inconclusive: 11% |
| Cc1ccc(C(=O)Nc2cc3c(ccc4ccccc43)oc2=O)cc1C | inconclusive: 13% |
| CCC(C)NC(=O)c1nn2c(c1Cl)NC(c1ccc(Cl)cc1)CC2C(F)(F)F (stereo not drawn) | inactive |
| NS(=O)(=O)c1ccc(CCNC(=O)c2cccn3c(=O)c4cc5ccccc5cc4nc23)cc1 | inconclusive: 13% |
| CC(=O)c1ccc(N(CN2C(=O)c3ccc([N+](=O)[O-])cc3C2=O)C(C)=O)cc1 | inactive |
| Cc1ccc(-n2c(=O)c3sccc3n(CC(=O)c3ccccc3)c2=O)cc1F | inconclusive: 10% |
| Cc1ccc(C2=NC(=C(Cl)Cl)C(=O)N2)cc1 | inconclusive: 29% |
| CCCCn1c(=O)c(-c2ccc3ccccc3n2)cc2ccccc21 | inconclusive: 21% |
| CC(C)Nc1ncc(CN2CCC(Cc3cccc(C(=O)O)c3)C2)cn1 (stereo not drawn) | inconclusive: 24% |
| COc1ccc(N2C(=O)c3c(C)nc4ccccc4c3C2=O)cn1 | inconclusive: 22% |
| Cc1nn(-c2ccccn2)c(C)c1[C@@H]1C=C[C@@H](NC(=O)c2cccs2)C1 | inconclusive: 10% |
| COc1ccc(Nc2cc(C)nc(Nc3ccc(NC(=O)CCC4CCCCC4)cc3)n2)cc1 | active: 40% |
| Nc1nc2n(n1)C(c1ccccc1)CC(c1ccccc1)N2 (stereo not drawn) | inactive |
| CC(C)(O)C#Cc1ccccn1 | inactive |
| CCc1c(C(=O)N(Cc2cccs2)C(CC)CO)csc1C (stereo not drawn) | inconclusive: 13% |

Three entries already listed, sorted by formula weight, falling.

| SMILES | inhibition |
| --- | --- |
| O=C(Nc1cccc(F)c1)N1Cc2[nH]cnc2C[C@H]1c1nc(-c2ccc(Cl)cc2)no1 | inconclusive: 11% |
| COc1ccc2cc3cc(C(=O)N(C)c4cc(C)ccc4C)oc3nc2c1 | inconclusive: 13% |
| CC(C)Nc1ncc(CN2CCC(Cc3cccc(C(=O)O)c3)C2)cn1 (stereo not drawn) | inconclusive: 24% |

Additional entries

| SMILES | inhibition |
| --- | --- |
| NC[C@H]1O[C@@H](CO)[C@@H](O)[C@H]1N1CCN(c2cccc(C(F)(F)F)c2)CC1 | inconclusive: 10% |
| COc1ccc(NC(=O)C(=O)NCc2ccc(F)cc2)cc1 | inactive |
| COc1ccc(OCc2nc(C#N)c(NCc3cccnc3)o2)cc1 | inconclusive: 12% |
| Cc1ccccc1CN1C(=O)/C(=C/C(=O)NC(C)c2ccccc2)Sc2ccccc21 (stereo not drawn) | inconclusive: 17% |
| O=C(Cc1c(C(=O)O)[nH]c2ccc(Cl)cc12)NCc1ccc(F)cc1Cl | inactive |
| Cc1ccc(CNC(=O)CN2C(=O)/C(=C/c3ccccc3F)Sc3ccccc32)cc1 | inactive |
| COc1ccccc1/C=C/CN1CCC2(CC1)c1ccccc1[C@@H](NC(=O)COc1ccccc1)[C@@H]2O | inconclusive: 10% |
| Cc1cccc(NC(=O)C(Cc2c[nH]c3ccccc23)NC(=O)C2CCC(C)CC2)n1 (stereo not drawn) | inconclusive: 14% |
| COc1ccc(-n2c(C)c([N+](=O)[O-])c3ccc(O)c(CN4CCCCC4)c32)cc1 | inconclusive: 27% |
| Cc1oc(-c2cccs2)nc1CN1CCCC(C(=O)NCc2ccco2)C1 (stereo not drawn) | inactive |
| CC1=C(C(=O)Nc2cccnc2)C(c2cccs2)n2nc(SCc3ccccc3)nc2N1 (stereo not drawn) | inconclusive: 17% |
| O=C(O)CCCC(=O)N1N=C(c2ccc(Br)cc2)CC1c1ccc(Cl)cc1 (stereo not drawn) | inactive |
| CCOc1ccc(CN2CCN(C/C=C/c3ccccc3OC)CC2CCO)cc1 (stereo not drawn) | inactive |
| COc1ncc(-c2c(-c3ccccc3)ncn2CCN2CCCCC2)cn1 | inconclusive: 23% |
| Cc1noc(-c2cc(Br)cc(Br)c2O)n1 | inconclusive: 12% |
| Cc1cc2ccccc2n1CCC(=O)N(Cc1ccccn1)CC1CCCO1 (stereo not drawn) | inconclusive: 23% |
| Cc1nc(C(=O)NC2CC(=O)N(CCCc3ccccc3)C2)cs1 (stereo not drawn) | inactive |
| COc1ccc(-c2oc3ncn(CCCn4ccnc4)c(=N)c3c2-c2ccc(OC)cc2)cc1 | inconclusive: 24% |
| COCc1nc(NCCc2csc(C(C)C)n2)c2cnn(C)c2n1 | inconclusive: 18% |
| CC(C)(C)c1ccc(S(=O)(=O)/C=C/C#N)cc1 | inconclusive: 12% |
| O=C(C1CC=CCC1)N1CCC(n2cc(CN3CCCC3)nn2)CC1 (stereo not drawn) | inconclusive: 17% |
| Cn1nc2c(c1C(=O)N1CCn3c(C(N)=O)cnc3C1)CCCC2 | inconclusive: 10% |
| O=C(Nc1ccccc1-c1nc2ccccc2[nH]1)c1cc(=O)c2ccccc2o1 | inconclusive: 16% |
| COCc1cc(C)nc(SCc2ccccc2Cl)c1C#N | inactive |

| SMILES | inhibition |
| --- | --- |
| O=C(COc1ccc2c(c1)C(=O)CC1(CCCCC1)O2)NCc1ccccn1 | inconclusive: 12% |
| Cc1c(CN(C)C2CCC3(CCNCC3)CC2)cnn1C | inactive |
| CCC(C)NC(=O)CCS(=O)(=O)c1cc(Br)cc2c1N(C(=O)C1CC1)CC2 (stereo not drawn) | inactive |
| Cc1c(Cl)c(C)c(C=Nc2ccccc2N)c(O)c1Br | inconclusive: 17% |
| CCCN=C(NS(=O)(=O)c1ccc(C)cc1)c1ccc(Cl)cc1 | inconclusive: 12% |
| O=C1C(=O)N(Cc2ccc(CN3C(=O)C(=O)c4ccccc43)cc2)c2ccccc21 | inconclusive: 10% |
| Cc1cccnc1CN1CCN(Cc2[nH]c3ccc(Cl)cc3c2C)CC1 | inconclusive: 14% |
| CCc1nc(CN2CCC(CCC(=O)N(C)Cc3ccccc3)CC2)c(C)[nH]1 | inconclusive: 10% |
| O=C(CC1COCCN1)N1CCc2[nH]nc(C3CCC3)c2C1 (stereo not drawn) | inconclusive: 23% |
| COc1ccc(Nc2ncnc3c2cnn3-c2cccc(C)c2)c(OC)c1 | inactive |
| O=C(NCCn1cc(SCC(=O)N2CCCCC2)c2ccccc21)c1ccc(F)cc1 | inactive |
| CCC(NC1CCN(Cc2ccccn2)CC1)c1ccnn1C (stereo not drawn) | inconclusive: 18% |
| CCC(C)C1N=C2c3ccccc3N=C(SCC(=O)N3CC(C)CC(C)C3)N2C1=O (stereo not drawn) | inactive |
| O=C(NCc1ccccc1)Nc1ccc2nsnc2c1 | inconclusive: 12% |
| O=C(Nc1nc(-c2cc([N+](=O)[O-])cs2)cs1)c1ccc(S(=O)(=O)N2CCCCC2)cc1 | inconclusive: 24% |
| CCOC(=O)c1[nH]c2ccc(OC)cc2c1NC(=O)CN(CC)CC | inconclusive: 14% |
| COc1ccc(C(=O)N2CCN(c3ccccc3OC)CC2)cc1OC | inactive |
| COc1ccc(N(C(=O)c2ccc(Br)cc2)C2C=CS(=O)(=O)C2)c(OC)c1 (stereo not drawn) | inconclusive: 13% |
| O=C(CSc1nnc(-c2cccnc2)n1Cc1ccco1)c1ccc(Br)cc1 | inconclusive: 22% |
| COC(=O)C(Cc1c[nH]c2ccccc12)NC1OC(=O)c2c1ccc(OC)c2OC (stereo not drawn) | inactive |
| COc1ccc(-n2ncc3c2CC(C)(C)CC3NC(=O)CSc2ncccn2)cc1 (stereo not drawn) | inactive |

Entries above that contain a COOH group, in the order listed:

| SMILES | inhibition |
| --- | --- |
| O=C(O)C#CCN1C(=O)c2ccccc2C1=O | inactive |
| COCC1(C(=O)N2CCC(c3ccccc3C(=O)O)C2)CCC1 (stereo not drawn) | inconclusive: 17% |
| CC(C)Nc1ncc(CN2CCC(Cc3cccc(C(=O)O)c3)C2)cn1 (stereo not drawn) | inconclusive: 24% |
| O=C(Cc1c(C(=O)O)[nH]c2ccc(Cl)cc12)NCc1ccc(F)cc1Cl | inactive |
| O=C(O)CCCC(=O)N1N=C(c2ccc(Br)cc2)CC1c1ccc(Cl)cc1 (stereo not drawn) | inactive |
